Measurements reported in PubChem BioAssay AID1259308 (NCATS, 2017).
Screen: 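Candidate targets for better recombinant protein yield in mammalian cells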 (primary screen). Cell system: human HEK293 embryonic kidney cells stably expressing firefly luciferase (HEK-CMV-Luc2-Hygro). Reagents: single siRNA against human genes, 0.8 pmol siRNA per well. Duration: 72 h. Measured: 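Luciferase light (ONE-Glo) measured on one replicate plate set and viability (CellTiter-Glo) on the other, scaled to a negative control siRNA, with robust z-scores and luciferase per cell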. Direction: total luciferase, z-score and total luciferase, % of control: higher = more reporter protein produced; luciferase per cell, z-score: higher = more reporter output per viable cell; viable cells, % of control: higher = more viable cells. Hit rule: 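Active when the median/MAD z-score for overall luciferase is greater than 3; a gene was taken forward for validation with new siRNAs if at least two of its three siRNAs passed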. Calls: active = raised luciferase; inactive = no rise.
The deposit covers about 59,000 reagents; below is a random part of them. Over the whole deposit, about 1,510 (2.6%) were called active. 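Calls use total luciferase alone and ignore viability, so some active siRNAs may act by altering cell number.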 A number with no mark means an inactive call. The numbers tell different reagents against one gene apart.

| gene symbol | siRNA no. | total luciferase, z-score | total luciferase, % of control | luciferase per cell, z-score | viable cells, % of control |
| --- | --- | --- | --- | --- | --- |
| PCDHGA11 | 1 | 0.626 | 94.3 | 0.259 | 98.5 |
| PCDHGA11 | 2 | 0.184 | 85.6 | 0.142 | 92.1 |
| PCDHGA11 | 3 | 0.855 | 98.9 | 0.428 | 98.7 |
| PCDHGA12 | 1 | -0.77 | 66.6 | -0.45 | 83.7 |
| PCDHGA12 | 2 | -0.686 | 68.2 | -0.835 | 95 |
| PCDHGA12 | 3 | 0.975 | 101 | 0.422 | 101 |
| CCNK | 1 | -1.27 | 56.7 | -0.484 | 72 |
| CCNK | 2 | 0.82 | 98.2 | 1.77 | 68.9 |
| CCNK | 3 | 0.407 | 90 | 2.41 | 53.3 |
| DNA2 | 1 | 0.269 | 87.2 | 0.327 | 89.4 |
| DNA2 | 2 | -0.772 | 66.5 | -1.09 | 99 |
| DNA2 | 3 | 2.07 | 123 | 2.4 | 73.1 |
| SLC2A10 | 1 | 0.719 | 96.2 | 0.164 | 103 |
| SLC2A10 | 2 | 0.789 | 97.6 | 1.07 | 82.3 |
| SLC2A10 | 3 | -0.336 | 75.2 | 0.455 | 74.5 |
| PNPP1 | 1 | -1.16 | 58.9 | -1.1 | 87.9 |
| PNPP1 | 2 | 0.0606 | 83.1 | 0.0221 | 92.3 |
| PNPP1 | 3 | 2.18 | 125 | 1.37 | 97.6 |
| SNHG32 | 1 | -1.04 | 61.2 | -0.633 | 80.7 |
| SNHG32 | 2 | 3.35 (active) | 149 | 2.16 | 94 |
| SNHG32 | 3 | 2.3 | 128 | 1.57 | 94.2 |
| AUTS2 | 1 | 1.25 | 107 | 0.937 | 93.2 |
| AUTS2 | 2 | -0.743 | 67.1 | 1.02 | 57.3 |
| AUTS2 | 3 | 0.383 | 89.5 | 0.446 | 88.9 |
| GPR82 | 1 | -0.388 | 74.2 | -0.155 | 86.3 |
| GPR82 | 2 | -0.832 | 65.3 | -1.44 | 107 |
| GPR82 | 3 | -0.966 | 62.7 | -1.17 | 95.3 |
| TTR | 1 | 0.763 | 97.1 | -0.0144 | 109 |
| TTR | 2 | 0.128 | 84.4 | -0.285 | 102 |
| TTR | 3 | -0.0874 | 80.1 | -0.418 | 100 |
| MSMO1 | 1 | -1.24 | 57.1 | -0.816 | 79.1 |
| MSMO1 | 2 | 0.745 | 96.7 | 0.424 | 96.7 |
| MSMO1 | 3 | -0.853 | 64.9 | 0.054 | 71.5 |
| ZNF17 | 1 | -0.203 | 77.8 | 0.0394 | 86.1 |
| ZNF17 | 2 | -0.0255 | 81.4 | 0.577 | 78.1 |
| ZNF17 | 3 | -0.406 | 73.8 | 0.338 | 75.5 |

A portion of the results above, for reference:
| gene symbol | siRNA no. | total luciferase, z-score | total luciferase, % of control | luciferase per cell, z-score | viable cells, % of control |
| --- | --- | --- | --- | --- | --- |
| PCDHGA12 | 2 | -0.686 | 68.2 | -0.835 | 95 |
| PCDHGA12 | 3 | 0.975 | 101 | 0.422 | 101 |
| CCNK | 1 | -1.27 | 56.7 | -0.484 | 72 |
| CCNK | 2 | 0.82 | 98.2 | 1.77 | 68.9 |
| CCNK | 3 | 0.407 | 90 | 2.41 | 53.3 |
| DNA2 | 1 | 0.269 | 87.2 | 0.327 | 89.4 |
| DNA2 | 2 | -0.772 | 66.5 | -1.09 | 99 |
| DNA2 | 3 | 2.07 | 123 | 2.4 | 73.1 |
| SLC2A10 | 1 | 0.719 | 96.2 | 0.164 | 103 |
| SLC2A10 | 2 | 0.789 | 97.6 | 1.07 | 82.3 |

The listing continues.
| gene symbol | siRNA no. | total luciferase, z-score | total luciferase, % of control | luciferase per cell, z-score | viable cells, % of control |
| --- | --- | --- | --- | --- | --- |
| CUL1 | 1 | -1.44 | 53.2 | -0.714 | 71.7 |
| CUL1 | 2 | -0.118 | 79.5 | 0.263 | 82.9 |
| CUL1 | 3 | 0.514 | 92.1 | 0.424 | 92.1 |
| PMS2P12 | 1 | 2.26 | 127 | 1.06 | 107 |
| PMS2P12 | 2 | -0.476 | 72.4 | -0.396 | 89.8 |
| PMS2P12 | 3 | -0.568 | 70.6 | 0.157 | 75.7 |
| TMEM165 | 1 | -0.348 | 75 | -1.11 | 112 |
| TMEM165 | 2 | 0.932 | 100 | 0.441 | 99.9 |
| TMEM165 | 3 | 0.161 | 85.1 | 1.26 | 68.2 |
| PDGFA | 1 | 0.29 | 87.6 | 0.251 | 91.7 |
| PDGFA | 2 | 1.07 | 103 | 1.13 | 85.6 |
| PDGFA | 3 | 1.47 | 111 | 1.52 | 83.3 |
| GPR157 | 1 | 0.807 | 97.9 | 1.52 | 73.3 |
| GPR157 | 2 | 1.12 | 104 | 0.799 | 94.2 |
| GPR157 | 3 | 0.102 | 83.9 | 0.169 | 89.7 |
| VPS33B | 1 | 0.238 | 86.6 | 0.619 | 82.2 |
| VPS33B | 2 | 0.321 | 88.3 | -0.138 | 102 |
| VPS33B | 3 | 3.19 (active) | 145 | 1.84 | 100 |
| TM9SF4 | 1 | 0.0643 | 83.2 | 0.123 | 90 |
| TM9SF4 | 2 | 1.58 | 113 | 1.12 | 94.2 |
| TM9SF4 | 3 | 0.272 | 87.3 | 0.166 | 93.4 |
